In the assay the target is T1, human cytochrome P450c17 fused to a fluorescent protein at the C-terminus (human) (UniProt P05093).
T1 sequence: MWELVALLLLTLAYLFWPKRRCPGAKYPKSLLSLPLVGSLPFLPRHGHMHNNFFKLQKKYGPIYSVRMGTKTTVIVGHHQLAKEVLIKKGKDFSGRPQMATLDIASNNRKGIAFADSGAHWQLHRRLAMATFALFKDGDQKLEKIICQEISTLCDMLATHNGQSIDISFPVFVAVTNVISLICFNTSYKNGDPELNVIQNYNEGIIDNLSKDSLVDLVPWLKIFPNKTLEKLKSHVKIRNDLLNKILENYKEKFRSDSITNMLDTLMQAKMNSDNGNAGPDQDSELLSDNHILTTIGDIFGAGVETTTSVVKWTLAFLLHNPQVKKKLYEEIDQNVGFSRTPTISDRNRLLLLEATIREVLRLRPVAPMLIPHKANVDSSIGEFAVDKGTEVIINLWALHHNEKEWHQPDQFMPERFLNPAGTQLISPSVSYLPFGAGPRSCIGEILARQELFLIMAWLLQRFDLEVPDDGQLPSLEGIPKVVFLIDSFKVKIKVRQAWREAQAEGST
Briefly: FRET or BRET; living HEK293 or H295 cells co-transfected with CFP and YFP fusion constructs; FRET ratio from the enhanced acceptor emission, a ratio >1.0 indicates close association.

No constants are given. Whether binding was seen depends on the method and setting. In cells and extracts the contact can be indirect. Binding can be weak; no strength is given. Sequences can lack the tags named with a protein.

Take “NADPH-cytochrome P450 oxido-reductase fused to a fluorescent protein at the C-terminus (enzyme)”: the binding result is “binds”.

The values are drawn from article PMC4654539.
